This assay concerns P388 leukemia ip, CD2F1 mice, survival T/C. In words: NCI In Vivo Anticancer Drug Screen. Data for tumor model P388 Leukemia (intraperitoneal) in CD2F1 (CDF1) mice. Conditions: T/C endpoint: median survival time, higher T/C = longer survival.
Setting [1] is: dose: 50.0 mg/kg/injection, schedule: Q01DX009 (ip), vehicle: Klucel (hydroxypropylcellulose) (HPC).
Setting [2] is: dose: 100.0 mg/kg/injection, schedule: Q01DX009 (ip), vehicle: Klucel (hydroxypropylcellulose) (HPC).
Setting [3] is: dose: 200.0 mg/kg/injection, schedule: Q01DX009 (ip), vehicle: Klucel (hydroxypropylcellulose) (HPC).
Setting [4] is: dose: 50.0 mg/kg/injection, schedule: Q01DX009 (ip), vehicle: saline with Tween-80.
[5] abbreviates: dose: 25.0 mg/kg/injection, schedule: Q01DX009 (ip), vehicle: saline with Tween-80.
[6] abbreviates: dose: 100.0 mg/kg/injection, schedule: Q01DX009 (ip), vehicle: saline with Tween-80.
Where [7] appears, read: dose: 200.0 mg/kg/injection, schedule: Q01DX009 (ip), vehicle: saline with Tween-80.
The mark [8] stands for this setting: dose: 100.0 mg/kg/injection, schedule: Q01DX005 (ip), vehicle: Klucel (hydroxypropylcellulose) (HPC).
Where [9] appears, read: dose: 200.0 mg/kg/injection, schedule: Q01DX005 (ip), vehicle: Klucel (hydroxypropylcellulose) (HPC).
The mark [10] stands for this setting: dose: 50.0 mg/kg/injection, schedule: Q01DX005 (ip), vehicle: Klucel (hydroxypropylcellulose) (HPC).
Setting [11] is: dose: 400.0 mg/kg/injection, schedule: Q01DX009 (ip), vehicle: saline with Tween-80.

The text below walks through data of PubChem BioAssay AID330 (DTP/NCI, 2004).

The list does not hold the whole screen: it is rich in T/C values a quarter to a half above the control, in often repeated tests (any T/C) and in doses without a T/C. Other doses and runs of a compound stand elsewhere. T/C is the treated group as % of the vehicle group. Some entries give survivors of the animals treated and no T/C: the source holds a T/C of zero for them, seemingly a mark for toxic or unscored doses. Some doses without a T/C left all or most animals alive at the check, yet need not have been tolerated: the source hardly ever lists a survival T/C far under the control, and the zero likely stands for such cases as well. Survivors were counted at the toxicity check, usually on the fifth day, unless a day is given; later deaths do not show. Schedules are NCI's codes, taken here to give the interval after Q, in days (D) or hours (H), and the number of doses after X. Some doses were run more than once; the values are given in rising order. For survival time, the PubChem record calls one and a half times the control and up active, and a quarter to a half above the control has no call in these data; cut-offs in other NCI protocols can differ. Some T/C values are followed by the survivors on the day toxicity was checked, most often the fifth; without a count, all were alive then.

For the molecule `c1csc(CSc2ncnc3nc[nH]c23)c1`, the T/C (dose: 400.0 mg/kg/injection, schedule: Q04DX003 (ip), vehicle: saline with Tween-80) was 133 % of control [5 of 6 alive]. In addition, for the setting “dose: 600.0 mg/kg/injection, schedule: Q04DX003 (ip), vehicle: saline with Tween-80”, the survivor count is reported as 3 of 6.

On to `Cc1c2ccncc2c(C)c2c1sc1ccccc12`, for which the T/C is, setting by setting: (dose: 12.5 mg/kg/injection, schedule: Q04DX003 (ip), vehicle: distilled water + Tween-80) 133 % of control; (dose: 25.0 mg/kg/injection, schedule: Q04DX003 (ip), vehicle: alkali diluted with water) 127 % of control; (dose: 25.0 mg/kg/injection, schedule: Q04DX003 (ip), vehicle: distilled water + Tween-80) 126 % of control; (dose: 50.0 mg/kg/injection, schedule: Q04DX003 (ip), vehicle: alkali diluted with water) 148 % of control; (dose: 50.0 mg/kg/injection, schedule: Q04DX003 (ip), vehicle: distilled water + Tween-80) 140 % of control; (dose: 100.0 mg/kg/injection, schedule: Q04DX003 (ip), vehicle: alkali diluted with water) 145 % of control. Also, the T/C (dose: 100.0 mg/kg/injection, schedule: Q04DX003 (ip), vehicle: distilled water + Tween-80) was 133 % of control. Moreover, under “dose: 400.0 mg/kg/injection, schedule: Q04DX003 (ip), vehicle: alkali diluted with water”, the survivor count is 5 of 8.

On to `CCSc1nc2ccc(N3C(=O)C=CC3=O)cc2s1`, for which the survivor count is reported as 0 of 6 under setting [1], 0 of 6 under setting [2] and 0 of 6 under setting [3].

Consider `CC1CCCC2COCN12` (stereo not drawn), for which, for the setting “dose: 100.0 mg/kg/injection, schedule: Q01DX005 (ip), vehicle: saline”, the T/C was 125 % of control.

On to `COc1cc(OC)c2cc(-n3nnc4cc([N+](=O)[O-])ccc43)c(=O)oc2c1`, for which the survivor count is 6 of 6 (dose: 120.0 mg/kg/injection, schedule: Q01DX005 (ip), vehicle: saline with Tween-80) and 6 of 6 (dose: 240.0 mg/kg/injection, schedule: Q01DX005 (ip), vehicle: saline with Tween-80).

Regarding `CSC(=S)NN=C1CCCC1`, the survivor count under setting [4] was 3 of 6.

On to `O=C1C2C3C=CC(C2C(=O)N1CO)C1C2C(=O)N(CO)C(=O)C2C31` (stereo not drawn), for which, under setting [5], the T/C is 140 % of control. Also, the survivor count is, setting by setting: under setting [6], 3 of 6; (dose: 100.0 mg/kg/injection, schedule: Q01DX009 (ip), vehicle: water) 0 of 6; under setting [7], 0 of 6.

As for `Nc1nc(SCc2cccc(Br)c2)c2ncn(C3OC(CO)C(O)C3O)c2n1` (stereo not drawn), the survivor count (dose: 150.0 mg/kg/injection, schedule: Q01DX009 (ip), vehicle: saline with Tween-80) is listed as 6 of 6.

As for `CC1CCC(SC2CC(=O)CCC2=O)CC1` (stereo not drawn), the survivor count was 1 of 5 (dose: 200.0 mg/kg/injection, schedule: Q01DX005 (ip), vehicle: saline with Tween-80) and 0 of 5 (dose: 400.0 mg/kg/injection, schedule: Q01DX005 (ip), vehicle: saline with Tween-80).

With `C=C1C(=O)O[C@@H]2C[C@H](C)[C@@H]3CC[C@H](O)[C@@]3(CO)C[C@H]12`, the survivor count is, setting by setting: (dose: 25.0 mg/kg/injection, schedule: Q01DX005 (ip), vehicle: Klucel (hydroxypropylcellulose) (HPC)) 0 of 6; under setting [9], 3 of 6. Further, the T/C under setting [8] was 128 % of control.

On to `O=[N+]([O-])c1ccc(S(=O)/N=C/c2ccccc2)c([N+](=O)[O-])c1` (stereo not drawn), for which the survivor count runs as follows: under setting [1], 0 of 6 and 1 of 6; under setting [2], 0 of 6; under setting [3], 0 of 6.

Turning to `CCCCN(CCCC)CC(O)c1c(Oc2ccccc2)c2ccccc2c2ccccc12` (stereo not drawn), the survivor count reads like this: under setting [5], 6 of 6; under setting [4], 5 of 6; under setting [6], 6 of 6.

Take `CN(C)Cc1cc2c(=O)[nH]c(N)nc2[nH]1`: the survivor count (dose: 400.0 mg/kg/injection, schedule: Q01DX001 (ip), vehicle: Klucel (hydroxypropylcellulose) (HPC)) is reported as 0 of 6.

As to `Cc1ccc(O)c(N)c1`, the survivor count by setting is: (dose: 100.0 mg/kg/injection, schedule: Q01DX009 (ip), vehicle: saline) 6 of 6; (dose: 400.0 mg/kg/injection, schedule: Q01DX009 (ip), vehicle: saline) 0 of 6, 1 of 6, 4 of 6; (dose: 600.0 mg/kg/injection, schedule: Q01DX009 (ip), vehicle: saline) 0 of 6. For the setting “dose: 200.0 mg/kg/injection, schedule: Q01DX009 (ip), vehicle: saline”, the T/C is 132 % of control.

For `O=S(=O)(c1ccccc1)N1OC1c1ccccc1` (stereo not drawn), the survivor count under setting [7] is 5 of 6.

In the case of `C[CH2][Sn]([CH2]C)[CH2]C.C[CH2][Sn]([CH2]C)[CH2]C`, the survivor count by setting is: under setting [10], 1 of 6; under setting [8], 0 of 6; under setting [9], 0 of 6. The T/C under setting [8] was 126 % of control.

For `CNC(=O)OCC1=C(COC(=O)NC)C2OC1C(C(=O)OC)=C2C(=O)OC`, the survivor count by setting is: (dose: 6.25 mg/kg/injection, schedule: Q01DX009 (ip), vehicle: distilled water + Tween-80) 6 of 6; (dose: 12.5 mg/kg/injection, schedule: Q01DX009 (ip), vehicle: distilled water + Tween-80) 5 of 6; (dose: 25.0 mg/kg/injection, schedule: Q01DX009 (ip), vehicle: distilled water + Tween-80) 3 of 6 and 5 of 6; (dose: 50.0 mg/kg/injection, schedule: Q01DX009 (ip), vehicle: distilled water + Tween-80) 2 of 6; (dose: 100.0 mg/kg/injection, schedule: Q01DX009 (ip), vehicle: distilled water + Tween-80) 0 of 6; (dose: 200.0 mg/kg/injection, schedule: Q01DX009 (ip), vehicle: distilled water + Tween-80) 0 of 6.

Regarding `O=C1c2ccccc2C(=O)N1C[P+](c1ccccc1)(c1ccccc1)c1ccccc1`, the T/C runs as follows: (dose: 6.25 mg/kg/injection, schedule: Q01DX009 (ip), vehicle: water) 129 % of control; (dose: 8.33 mg/kg/injection, schedule: Q01DX009 (ip), vehicle: water) 129 % of control; (dose: 12.5 mg/kg/injection, schedule: Q01DX009 (ip), vehicle: water) 129 and 134 % of control; (dose: 18.8 mg/kg/injection, schedule: Q01DX009 (ip), vehicle: water) 136 % of control.

As to `O=[N+]([O-])c1ccccc1-c1ccc2c(O)c(Cl)c(Cl)c(O)c2n1`, the survivor count is, setting by setting: (dose: 200.0 mg/kg/injection, schedule: Q04DX003 (ip), vehicle: Klucel (hydroxypropylcellulose) (HPC)) 0 of 6; (dose: 400.0 mg/kg/injection, schedule: Q04DX003 (ip), vehicle: Klucel (hydroxypropylcellulose) (HPC)) 0 of 6.

For `O=C(Nc1cccc(Cl)c1)N1CC1`, the survivor count was 0 of 6 under setting [7] and 0 of 6 under setting [11].

Regarding `N#CC(CCCC(C#N)c1ccccc1)c1ccccc1` (stereo not drawn), under “dose: 200.0 mg/kg/injection, schedule: Q01DX001 (ip), vehicle: Klucel (hydroxypropylcellulose) (HPC)”, the survivor count is reported as 3 of 6.

With `COc1ccc(C2c3cc4c(cc3OC(C)(OC)C2C)OCO4)cc1` (stereo not drawn), the survivor count is reported as 6 of 6 under setting [10], 6 of 6 under setting [8] and 6 of 6 under setting [9].

As to `Cc1ccc(C)c2c1CCC2C` (stereo not drawn), the survivor count under setting [7] was 4 of 6 and 5 of 6.

In the case of `C=C(C)C1CC=C(/C=N/O)CC1` (stereo not drawn), under setting [7], the survivor count is 6 of 6.

Turning to `O/N=C\c1ccccc1P(c1ccccc1/C=N\O)c1ccccc1/C=N\O`, the survivor count (dose: 400.0 mg/kg/injection, schedule: Q01DX001 (ip), vehicle: saline with Tween-80) is recorded as 6 of 6.

As to `ClC(Cl)Oc1ccccc1`, the survivor count by setting is: under setting [6], 1 of 6; under setting [7], 0 of 6; under setting [11], 0 of 6.

Consider `CC1(C)CCC2(C(=O)OC3OC(CO)C(O)C(O)C3O)CCC3(C)C(=CCC4C5(C)CCC(OC6OC(CO)C(O)C(OC7OC(CO)C(O)C(O)C7O)C6O)C(C)(C)C5CCC43C)C2C1` (stereo not drawn), for which the survivor count under setting [8] is 5 of 5.
